Measurements reported in patent publication US20220056104A1 (Janssen / Centocor, published 2022).
No constants are given. Whether binding was seen depends on the method and setting. Some results given as binding are weak or reduced against the parent protein; the word gives no strength. Sequences can lack the tags named with a protein.

Biological target: T1, Recombinant DR3-Fc (R&D Systems, cat. #943-D3) (UniProt Q93038)
T1 sequence (looked up): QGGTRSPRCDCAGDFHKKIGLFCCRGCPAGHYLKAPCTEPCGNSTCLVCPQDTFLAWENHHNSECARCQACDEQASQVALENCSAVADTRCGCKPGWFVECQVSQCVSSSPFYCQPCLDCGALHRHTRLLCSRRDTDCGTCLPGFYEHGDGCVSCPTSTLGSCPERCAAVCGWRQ
Assay: ELISA (FIG. 8C)

binding: binds
B1: TL1A N133Q (ligand)
chain: LKGQEFAPSHQQVYAPLRADGDKPRAHLTVVRQTPTQHFKNQFPALHWEHELGLAFTKNRMQYTNKFLLIPESGDYFIYSQVTFRGMTSECSEIRQAGRPNKPDSITVVITKVTDSYPEPTQLLMGTKSVCEVGSNWFQPIYLGAMFSLQEGDKLMVNVSDISLVDYTKEDKTFFGAFLL
